# Reference: PubChem BioAssay AID1487 (National Center for Advancing Translational Sciences (NCATS), 2009)
# Where “and” joins values, the source holds several entries; their conditions need not be identical. Equal entries are not always repeated. Hit rate of the full screen: of about 200,000 compounds, about 25 (0.01%) were called active. The inconclusive results got no clear call from the source; some entries with a clear call stand among them for comparison. The call rests on the fitted dose curve; in most records, active means well fitted inhibition curve with a large enough effect in the signal ratio, with a control signal flat (not every such curve was filed as active); inconclusive means small, poorly fitted or top-dose-only effect, or effect the other way, or a change in a side signal; inactive means flat fitted curve, though single readings scatter; the % refers to the signal ratio. Potencies beside an inconclusive call are fits to weak or partial responses and may not hold up.
# Experiment: qHTS Assay for Modulators of Lamin A Splicing
# Settings: HeLa LMNA splicing GFP/RFP minigene ratio, 48 h; ratio change, negative = inhibition: at 46.1 µM (top of the series) unless noted
# Method in brief: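 Read-out is the ratio of GFP to DsRed2 object intensity, acquired by 488 nm laser-scanning cytometry on HeLa lamin A-EGFP minigene reporter cells. Compound incubation 48 hrs at 37 °C in Opti-MEM with 2% FBS; DMSO 0.5% final.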
# On the % scale 0 is the no-effect control and ±100 the full control effect; potency means the concentration at half of the fitted maximal effect.
Compound,"ratio change, negative = inhibition",Potency
Cc1cc(C)cc(NC(=O)c2ccc(NC(=O)C3C4CC5OC(=O)C3C5C4)cc2)c1 (stereo not given),inconclusive: 15% [at 46 µM],–
Cc1cccc(N2C(=O)CC(n3ccnc3)C2=O)c1C (stereo not given),inconclusive: 30.3% [at 46 µM],–
CCOC(=O)c1[nH]c(C)c(CCC(=O)NCc2cccc(Cl)c2)c1C,inconclusive: 10.3% [at 46 µM],–
COC(=O)c1c(-c2cc(OC)c(OC)c(OC)c2)c2ccc(OCc3ccccn3)cc2c(=O)n1-c1ccc(N)cc1,inconclusive: -41.7%,–
Cc1cc(OC(=O)CNC(=O)OC(C)(C)C)c2c(C)cc(=O)oc2c1,inconclusive: 11%,–
CC(=O)c1[nH]c(C)c(C(=O)NCc2ccc(Cl)cc2)c1C,inactive: -2.44% [at 46 µM],–
CC(=O)Nc1ccc(S(=O)(=O)NCC2CCC(C(=O)NCCCN3CCCC3=O)CC2)cc1 (stereo not given),inconclusive: 31.7%,–
COC(=O)c1ccc(C(=O)OC)c(-n2c(=O)c3ccccc3c3ccccc3c2=O)c1,–,"inconclusive: 20 µM [inhibitor, partial curve]"
CC(=O)Nc1cccc(C(=O)N/N=C/c2ccc(F)cc2)c1,inactive: -17.5%,–
C=CCC1(N(C(C)=O)c2ccccc2C)CCCCC1,inconclusive: 18.3% [at 46 µM],–
COc1ccccc1OCC(O)Cn1c(=N)n(Cc2ccccc2)c2ccccc21 (stereo not given),–,"inconclusive: 15.8 µM [fluorescent, single point]"
CCOC(=O)C1=C(C)NC(=O)NC1c1ccc(OC)c(Cl)c1 (stereo not given),inconclusive: 7.15%,–
O=C(Nc1ccc2c(c1)N(C1CCCC1)C(=O)c1ccccc1S2)c1ccc(F)cc1,inconclusive: -36.9% [at 46 µM],–
O=c1c(Cc2ccc(Cl)cc2Cl)c(O)ccn1CCCN1CCOCC1,inconclusive: -3.3% [at 46 µM],–
Cc1cc(C)cc(N(CC(=O)Nc2ccc(-c3nc4ccc(C)cc4s3)cc2)S(C)(=O)=O)c1,inactive: -6.75%,–
O=C1CCC(C(=O)Nc2nnc(C3CC3)s2)=NN1,inconclusive: -13.4% [at 46 µM],–
CCNc1nc(NCC)n2c(SCC(=O)Nc3ccccc3[N+](=O)[O-])nnc2n1,inconclusive: 7.37%,–
O=C(NCCc1ccccc1Cl)C1CCN(S(=O)(=O)c2cccs2)CC1,inactive: -2.42%,–
Cc1ccc(C)c(Cn2c(CN(C)Cc3ccccc3)nc3c2c(=O)n(C)c(=O)n3C)c1,inactive: 5.09%,–
CC(C)C(=O)N=C1SC2CS(=O)(=O)CC2N1Cc1ccccc1 (stereo not given),inconclusive: 5.53%,–
NCCCC(O)(P(=O)(O)O)P(=O)(O)O,inconclusive: -4.23%,–
Cc1ccccc1CSc1nnc2[nH]c(=O)cc(C)n12,inactive: 9.16% [at 46 µM],–
CCOc1ccc(NC(=O)c2ccc(F)c(S(=O)(=O)NCc3ccc4c(c3)OCO4)c2)cc1,inconclusive: -34.2% [at 46 µM],–
Nc1ccc(S(=O)(=O)Nc2cnc3ccccc3n2)cc1,inactive,–
COc1ccc(CCNC(=O)CS(=O)Cc2nc(-c3ccc(C)cc3)oc2C)c(OC)c1 (stereo not given),inconclusive: -11.6% [at 46 µM],–
Cn1nnnc1SCC(=O)Nc1c(Cl)cccc1Cl,inactive: 2.6%,–
C=CCN(CC=C)C(=S)NC(=O)c1ccc(OC)cc1,–,"inconclusive: 35.5 µM [activator, single point]"

Compound,"ratio change, negative = inhibition",Potency
O=c1[nH]c(=O)n(C2CCCO2)cc1Br (stereo not given),inconclusive: -9.78%,–
O=c1[nH]c(CN2CCN(S(=O)(=O)c3cccs3)CC2)nc2c(Br)cc(Br)cc12,inconclusive: -21.4% [at 46 µM],–
Cc1ccc(-n2c(C)cc(/C([O-])=C(/C(=S)Nc3ccc(F)c(Cl)c3)[n+]3ccccc3)c2C)cc1,–,"inconclusive: 15.8 µM [falling, single point]"
CC(/C=N/n1c(COc2ccccc2)n[nH]c1=S)=C\c1ccccc1,inconclusive: 2.46% [at 0.0737 µM],–
Cc1ccc(Sc2nc3c(c(=O)[nH]c(=O)n3C)n2CCc2ccccc2)cc1,inactive: 1.56%,–
Cc1cccc(-c2nc3scc(CCNC(=O)c4ccccc4Cl)n3n2)c1,inconclusive: -10.2% [at 46 µM],–
COc1ccc(NC(=S)Nc2cccc(S(=O)(=O)N3CCCCC3)c2)cc1,–,"inconclusive: 35.5 µM [fluorescent, single point]"
COc1ccc(Cl)cc1N1CC(C(=O)Nc2nccs2)CC1=O (stereo not given),inconclusive: -13.7%,–
COc1ccccc1NC(=O)c1ccc(NS(=O)(=O)c2ccc(F)c(F)c2F)cc1,inconclusive: -22.1%,–
CCN(CC)C(=O)CSc1nc2ccccc2c(=O)n1CC1CCCCC1,–,"inconclusive: 35.5 µM [falling, single point]"
O=C(CSc1ccccc1)Nc1ccc(S(=O)(=O)Nc2ncccn2)cc1,inconclusive: 5.38% [at 9.22 µM],–
COc1ccnc(-n2cccc2C=O)c1C#N,inconclusive: 16.6% [at 46 µM],–
CCN(CC)C(=O)CSc1ncnc2c(-c3ccc(OC)cc3)nsc12,inconclusive: -1.26% [at 46 µM],–
N#CCSc1nnc(C2CCCCC2)n1Cc1ccccc1,inconclusive: 9.95%,–
CCC(C)NC(=O)Cn1cc(S(=O)(=O)N2CCN(c3ccccc3F)CC2)c2ccccc2c1=O (stereo not given),inconclusive: -31.2% [at 46 µM],–
COc1ccc(OCCOCCOc2ccc(C)cc2[N+](=O)[O-])cc1,inactive: -1.34%,–
CCC(C)(C)NC(=O)C(c1ccc(C)cc1)N(Cc1ccco1)C(=O)Cn1nnc2ccccc21 (stereo not given),inactive: -1.44%,–
CCOC(=O)/C=C/C(=O)OCC(=O)NC(c1ccccc1)c1ccccc1,–,"inconclusive: 22.4 µM [inhibitor, partial curve, poor fit]"
Cc1noc(C)c1S(=O)(=O)N1CCCC(C(=O)NCCC2=CCCCC2)C1 (stereo not given),inconclusive: 2.04%,–
COc1ccc(-c2nnc(SCC(=O)Nc3ccc(F)cc3)s2)cc1,inconclusive: 4.69% [at 46 µM],–
O=C(c1cccs1)n1nc(-c2cccnc2)nc1NCc1ccco1,inactive: -15.1% [at 46 µM],–
COCc1nc2c([nH]1)c(=O)n(C)c(=O)n2CC(C)C,inconclusive: 37% [at 46 µM],–
Cc1cc(NC(=O)C2CC2)ncc1NC(=O)c1ccccn1,inactive: 9.3% [at 46 µM],–
O=C(CSCc1c(F)cccc1Cl)NCCSCc1ccco1,inactive: 8.13% [at 46 µM],–
Cc1ccccc1OCCNc1cc(N2CCNCC2)ccc1[N+](=O)[O-],inconclusive: -8.47% [at 46 µM],–
CC1C(=O)NN=C1C(=O)N/N=C\c1ccc(O)cc1O (stereo not given),inactive: -7.06%,–
CCCc1[nH]nc2c1C(C1CCCCC1)C(C#N)=C(N)O2 (stereo not given),inconclusive: -17.6%,–

# Entries of single compounds, quoted from the list:
# COc1ccc(-c2nnc(SCC(=O)Nc3ccc(F)cc3)s2)cc1 is listed with ratio change, negative = inhibition: inconclusive: 4.69% [at 46 µM]
# Cc1cc(NC(=O)C2CC2)ncc1NC(=O)c1ccccn1 is listed with ratio change, negative = inhibition: inactive: 9.3% [at 46 µM]
# O=C(CSc1ccccc1)Nc1ccc(S(=O)(=O)Nc2ncccn2)cc1 is listed with ratio change, negative = inhibition: inconclusive: 5.38% [at 9.22 µM]
# CC(/C=N/n1c(COc2ccccc2)n[nH]c1=S)=C\c1ccccc1 is listed with ratio change, negative = inhibition: inconclusive: 2.46% [at 0.0737 µM]

# Carrying on:

Compound,"ratio change, negative = inhibition",Potency
COc1cc(/C=N/Nc2ccc(C(=O)O)cc2)ccc1O,inconclusive: 4.42% [at 46 µM],–
O=C(C[n+]1cccc2ccccc21)c1ccc([N+](=O)[O-])cc1,inconclusive: -36.7% [at 46 µM],–
COC(=O)c1ccccc1NC(=O)N1c2ccccc2Sc2ccccc21,–,"inconclusive: 35.5 µM [falling, single point]"
CCC(C)Nc1nnnc2c1sc1nc3c(cc12)COC(C)(C)C3 (stereo not given),–,"inconclusive: 17.8 µM [inhibitor, partial curve, poor fit]"
CCc1ccc(CNC(=O)CCN2C(=O)COc3ccccc32)cc1,inactive: 16% [at 46 µM],–
Cc1nc(-c2ccc(F)cc2)sc1CCNC(=O)c1ccco1,–,"inconclusive: 5.62 µM [rising, single point]"
COc1cc(NC(=O)Cn2c(C)cc3ccccc3c2=O)cc(OC)c1OC,inconclusive: 5.2%,–
Cc1ccc2nc(-c3cccnc3)oc2c1,inactive: 3.56%,–
CC(=O)Nc1cc(C(=O)NCc2ccc(F)cc2Cl)ccc1Sc1ccc(Cl)cc1,inconclusive: -33.9% [at 46 µM],–
COC(=O)c1ccccc1NC1CC(=O)N(c2c(C)cccc2C)C1=O (stereo not given),inactive: 15.4%,–
Cc1ccc(S(=O)(=O)N/N=C/c2cc([N+](=O)[O-])ccc2O)cc1[N+](=O)[O-],inconclusive: 16.6% [at 46 µM],–
O=C(NC(CO)(CO)CO)c1coc(=O)c(Br)c1,inactive: 12.2%,–
COc1ccccc1N1CCN(C(=O)c2oc3ccc(Br)cc3c2C)CC1,inactive: -20.5%,–
CCOC(=O)c1[nH]c(C)c(CCC(=O)Nc2ccc(N(CC)CC)cc2C)c1C,inconclusive: -2.01% [at 46 µM],–
Oc1ccc(/C=N/Nc2nccnc2Cl)c(O)c1,–,"inconclusive: 5.01 µM [inhibitor, full curve, poor fit]"
CN(C)CCn1c(=N)n(CC(O)c2ccc(Cl)c(Cl)c2)c2ccccc21 (stereo not given),inconclusive: -21.6% [at 46 µM],–
O=C(c1ccc2ncsc2c1)N1CCN(c2ccc(O)cc2)CC1,–,"inconclusive: 11.2 µM [inhibitor, single point]"
Cn1c(N/N=C/c2c[nH]c3ccccc23)nc2ccccc21,–,"inconclusive: 11.2 µM [inhibitor, single point]"
Cc1ccnc(NS(=O)(=O)c2ccc(N)cc2)n1,inconclusive: -6.14% [at 22.9 µM],–
CSC1=C(C#N)C(c2ccccc2)C(C(C)=O)=C(C)N1 (stereo not given),–,"inconclusive: 35.5 µM [activator, partial curve, poor fit]"
Nc1c(Cl)c(Cl)nc(C(=O)N/N=C/c2cccnc2)c1Cl,inconclusive: -6.57% [at 46 µM],–
C[C@H]1NC(=O)NC1=O,inconclusive: -3.68% and inconclusive: -23.4%,–
CC1(C)CCCC2=C1CC1C(=O)N(c3ccccc3)C(=O)C1C2 (stereo not given),inconclusive: 17.7%,–
Cc1cc(/C=N/n2cnnc2)c(C)n1-c1ccc(OCc2ccc(Cl)cc2Cl)cc1,inconclusive: -13.3%,–
Cc1ccc2oc3c(c(=O)c2c1)C(c1cccc(Cl)c1)N(CCCN1CCOCC1)C3=O (stereo not given),inactive: 3.34%,–
Cc1ccc(OCC(=O)Nc2ccc(CN3CCCCC3)cc2)c(C)c1,inactive: -18.7% [at 46 µM],–
